# The supplement of paper PMC9135407
# Where “and” joins values, the source holds several entries; their conditions need not be identical. Equal values may be shown once. Where a name gives a salt, the structure may show the parent alone. ± gives the standard deviation of the averaged measurements. The list shows a part of the results. Baselines shift from plate to plate; read single values as rough.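 Primary human stellate myofibroblasts activated in culture; inactivation shown by regained lipid droplets. Readout: fraction of Hoechst-counted cells exceeding a per-plate Bodipy threshold, duplicate wells, each plate with DMSO negative and nortriptyline positive controls. Hits: control-normalized score beyond the plate's top-tenth-percentile nortriptyline wells, or among its three best wells. Final well concentrations unstated.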
# System: primary human hepatic stellate cells (donor 1)
# Assay: percent Bodipy-positive cells; higher = more lipid droplet accumulation
# Settings: 48 h
# Procedure: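 Primary lipid accumulation screen in primary human hepatic stellate cell myofibroblasts (donor 1, passage 8) in 384-well plates. 100 nL of library compound was pin-transferred into 30 µL medium in duplicate, and cells were treated for 48 h. The 'Scaled' score combines distance from plate baseline, toxicity and reproducibility penalties, and is normalised to nortriptyline (positive) and DMSO (negative) controls on each plate. A hit is defined as scaled >0.85 or among the top 3 wells per plate.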
# [1] = library stock concentration: 3.33 mM
# [2] = library stock concentration: 10 mM
# [3] = library stock concentration: 1 mM
# [4] = library stock concentration: 80 uM
# [5] = library stock concentration: 400 uM
# [6] = library stock concentration: 2 mM
smiles,measurement,setting,value
CCN(C(=O)c1c(O)c2c(Cl)cccc2n(C)c1=O)c1ccccc1 [Laquinimod],percent Bodipy-positive cells,[1],9.73 ± 1.5%
same,percent Bodipy-positive cells,[2],9.67 ± 5.2%
COc1cccc(CCc2ccccc2OCC[C@@H]2C[C@@H](O)CN2C)c1.Cl,percent Bodipy-positive cells,[2],94.6 ± 2.4%
C1CCC(C(CC2CCCCN2)C2CCCCC2)CC1 (stereo unspecified) [Perhexiline maleate],percent Bodipy-positive cells,,95.8 ± 4.4%
same,percent Bodipy-positive cells,library stock concentration: 5.1 mM,68.6 ± 3.4%
same,percent Bodipy-positive cells,[2],70.87 ± 0.2%
COc1ccccc1N1CCN(CCCCNC(=O)c2ccc(-c3ccc(C(C)=O)cc3)cc2)CC1,percent Bodipy-positive cells,[2],78.5 ± 5.7%
CN1CC(=O)N2[C@H](c3ccc4c(c3)OCO4)c3[nH]c4ccccc4c3C[C@@H]2C1=O,percent Bodipy-positive cells,[2],9.81 ± 0.77%
CN1CC(=O)N2[C@H](c3ccc4c(c3)OCO4)c3[nH]c4ccccc4c3C[C@@H]2C1=O [Tadalafil],percent Bodipy-positive cells,[1],7.16 ± 4.7%
same,percent Bodipy-positive cells,[2],16.7 ± 0.29%
CCCCCC(O)C=CC1C(O)CC(O)C1CC=CCCCCOC (stereo not drawn) [Prostaglandin F2.alpha. Alcohol methyl ether],percent Bodipy-positive cells,[3],13 ± 3.1%
NC1CCN(c2cccc(Cl)n2)CC1,percent Bodipy-positive cells,[2],58.3% and 41.3%
Cc1cccc(-c2[nH]c(C(C)(C)C)nc2-c2ccc3c(c2)OCO3)n1,percent Bodipy-positive cells,[1],48.2 ± 4.1%
same,percent Bodipy-positive cells,[2],28.5 ± 3.4%
C[C@@H](N)c1ccc(C(=O)Nc2ccnc3[nH]ccc23)cc1.Cl.Cl,percent Bodipy-positive cells,[2],100%
CCCCCCCCCCCCC/C=C/[C@@H](O)[C@H](CO)NCCCCCCCC [C8 Ceramine],percent Bodipy-positive cells,[3],22.9 ± 6.3%
CCCCCCCCCCCCC/C=C/[C@@H](O)[C@H](CO)NCCCCCCCC [C-8 Ceramine],percent Bodipy-positive cells,[3],18.6 ± 6.2%
CC(NC(=O)c1ccccc1/N=C/c1c(O)ccc2ccccc12)c1ccccc1 (stereo unspecified) [Sirtinol],percent Bodipy-positive cells,[1],6.88 ± 1.1%
same,percent Bodipy-positive cells,[2],14.4% and 7.75%
COc1cc(C(=O)NCc2ccc(OCCN(C)C)cc2)cc(OC)c1OC [Trimethobenzamide hydrochloride],percent Bodipy-positive cells,,32.8 ± 12%
same,percent Bodipy-positive cells,library stock concentration: 4.7 mM,25.7 ± 6.4%
same,percent Bodipy-positive cells,[2],31.2 ± 12%
CCCN1CCCC[C@H]1C(=O)Nc1c(C)cccc1C,percent Bodipy-positive cells,library stock concentration: 9.9 mM,8.37 ± 0.85%
CCCN1CCCC[C@H]1C(=O)Nc1c(C)cccc1C [Ropivacaine HCl],percent Bodipy-positive cells,[1],26.8 ± 7%
same,percent Bodipy-positive cells,[2],23 ± 3.1%
Cc1ccc(S(=O)(=O)N[C@@H](Cc2ccccc2)C(=O)CCl)cc1 [N-p-Tosyl-L-phenylalanine chloromethyl ketone],percent Bodipy-positive cells,[2],98.8 ± 1.1%
Cc1ccc(S(=O)(=O)N[C@@H](Cc2ccccc2)C(=O)CCl)cc1 [Tosyl-Phe-CMK (TPCK)],percent Bodipy-positive cells,library stock concentration: 14.2 mM,100%
CC(C)(OCc1nn(Cc2ccccc2)c2ccccc12)C(=O)O [Bindarit],percent Bodipy-positive cells,[1],10.1 ± 2.3%
same,percent Bodipy-positive cells,[2],7.78 ± 1.1%
c1cnc(N2CCN(Cc3ccc4c(c3)OCO4)CC2)nc1 [Piribedil hydrochloride],percent Bodipy-positive cells,,6.5 ± 1.4%
c1cnc(N2CCN(Cc3ccc4c(c3)OCO4)CC2)nc1 [Piribedil maleate],percent Bodipy-positive cells,[2],20.6 ± 12%
c1cnc(N2CCN(Cc3ccc4c(c3)OCO4)CC2)nc1 [Piribedil],percent Bodipy-positive cells,library stock concentration: 9.7 mM,13.3 ± 3.8%
same,percent Bodipy-positive cells,[2],6.91 ± 0.94%
c1cnc(N2CCN(Cc3ccc4c(c3)OCO4)CC2)nc1 [Piribedil HCl],percent Bodipy-positive cells,library stock concentration: 6.7 mM,12.5 ± 0.62%
COC(=O)/C=C/c1cccc(N(Cc2ccc(-c3ccc(N(C)C)cc3)cc2)C(=O)C2CCCCC2)c1 [Fexaramine],percent Bodipy-positive cells,[2],8.33 ± 0.36%
"C[C@](N)(Cc1ccc(O)c(O)c1)C(=O)O [Methyldopa (L,-)]",percent Bodipy-positive cells,,27 ± 13%
C[C@](N)(Cc1ccc(O)c(O)c1)C(=O)O [L-alpha-Methyl DOPA],percent Bodipy-positive cells,[2],51.3 ± 20%
C[C@](N)(Cc1ccc(O)c(O)c1)C(=O)O [Methyldopa],percent Bodipy-positive cells,library stock concentration: 9.5 mM,9% and 5.03%
Cc1ccc(NC(=O)c2ccc(CN3CCN(C)CC3)cc2)cc1Nc1nccc(-c2cccnc2)n1 [Imatinib (STI571)] [listing 1 of 2 here],percent Bodipy-positive cells,[2],86.2 ± 6.2%
Cl.Fc1ccc([C@@H]2CCNC[C@H]2COc2ccc3c(c2)OCO3)cc1 [Paroxetine HCl],percent Bodipy-positive cells,[1],68.2 ± 9.7%
CCOC(=O)c1cnc2ccc(-c3cncc(NS(=O)(=O)c4ccccc4)c3)cn12,percent Bodipy-positive cells,[1],80.2 ± 7.7%
COc1cc2c(c(OC)c1OC)-c1c(cc3c(c1OC)OCO3)CC(C)C(C)C2 (stereo unspecified) [Schisandrin B (Sch B)],percent Bodipy-positive cells,[1],5.9 ± 0.34%
same,percent Bodipy-positive cells,[2],36.6 ± 14%
O=c1[nH]nc(Sc2ncc([N+](=O)[O-])s2)n1-c1ccc2c(c1)OCCO2,percent Bodipy-positive cells,[2],89.1 ± 1.6%
Clc1ccc(C(Cn2ccnc2)OCc2ccsc2Cl)c(Cl)c1 (stereo unspecified) [Tioconazole],percent Bodipy-positive cells,[1],7.1 ± 2.5%
same,percent Bodipy-positive cells,library stock concentration: 5.2 mM,6.15% and 12.5%
same,percent Bodipy-positive cells,[2],18.8 ± 0.75%
COc1cc(C(=O)N2CCC(N3CCN(C)CC3)CC2)ccc1Nc1ncc2c(n1)N(C)c1ccccc1C(=O)N2C [listing 1 of 2 here],percent Bodipy-positive cells,[4],11.1 ± 2.5%
same,percent Bodipy-positive cells,[5],15 ± 0.77%
same,percent Bodipy-positive cells,[6],44.7 ± 4.3%
O=C(O)CNC(=O)C(CS)Cc1ccccc1 (racemic) [DL-Thiorphan],percent Bodipy-positive cells,[2],15.2 ± 5.1%
CCCC1C(=O)N2C(N(C)C)=Nc3ccc(C)cc3N2C1=O (stereo unspecified) [Azapropazone],percent Bodipy-positive cells,,9.2 ± 1.1%
COc1cc2c(cc1OC)CC(=O)N(CCCN(C)C[C@H]1Cc3cc(OC)c(OC)cc31)CC2 [Ivabradine HCl],percent Bodipy-positive cells,[1],13.1 ± 8.3%
same,percent Bodipy-positive cells,[2],18.8 ± 1.1%
CCCCCCCCCC(=O)NC(CN1CCOCC1)C(O)c1ccccc1 (stereo unspecified) [PDMP (hydrochloride)],percent Bodipy-positive cells,[3],9.94 ± 4.1%
COc1cc(C(=O)N2CCC(N3CCN(C)CC3)CC2)ccc1Nc1ncc2c(n1)N(C)c1ccccc1C(=O)N2C [listing 2 of 2 here],percent Bodipy-positive cells,[2],91.56 ± 0.34%
C[C@H]1c2cccc(O)c2C(=O)C2=C(O)[C@]3(O)C(=O)C(C(N)=O)=C(O)[C@@H](N(C)C)[C@@H]3[C@@H](O)[C@@H]21,percent Bodipy-positive cells,[2],33.9 ± 5.5%
C[C@H]1c2cccc(O)c2C(=O)C2=C(O)[C@]3(O)C(=O)C(C(N)=O)=C(O)[C@@H](N(C)C)[C@@H]3[C@@H](O)[C@@H]21 [Doxycycline HCl],percent Bodipy-positive cells,[1],8.04 ± 3.5%
same,percent Bodipy-positive cells,library stock concentration: 4.5 mM,7.33 ± 0.44%
same,percent Bodipy-positive cells,[2],30.7 ± 5.5%
C[C@H]1c2cccc(O)c2C(=O)C2=C(O)[C@]3(O)C(=O)C(C(N)=O)=C(O)[C@@H](N(C)C)[C@@H]3[C@@H](O)[C@@H]21 [Doxycycline hydrochloride],percent Bodipy-positive cells,[2],8.368 ± 0.016%
C[C@H]1c2cccc(O)c2C(=O)C2=C(O)[C@]3(O)C(=O)C(C(N)=O)=C(O)[C@@H](N(C)C)[C@@H]3[C@@H](O)[C@@H]21 [Doxycycline hyclate],percent Bodipy-positive cells,,9.01 ± 1.8%
N[C@@H](CSC(c1ccccc1)(c1ccccc1)c1ccccc1)C(=O)O [S-Trityl-L-cysteine],percent Bodipy-positive cells,[2],11.7 ± 1.8%
O=C1/C(=C/c2cccs2)CCC/C1=C\c1cccs1,percent Bodipy-positive cells,[2],55.7 ± 35%
O=C(c1ccc(Nc2nccc(-c3cc4ccccc4s3)n2)cc1)N1CCC(N2CCCC2)CC1 [IKK Inhibitor VII],percent Bodipy-positive cells,[1],91.4 ± 5.2%
CCCCCCCCCCCCC(=O)NC1CCOC1=O [N-tridecanoyl-L-Homoserine lactone],percent Bodipy-positive cells,[3],12.6 ± 5.3%
Cc1c(C(=O)NN2CCCCC2)nn(-c2ccc(Cl)cc2Cl)c1-c1ccc(Cl)cc1 [Rimonabant],percent Bodipy-positive cells,[1],25.7 ± 8.3%
same,percent Bodipy-positive cells,[2],10.6 ± 0.14%
Nc1ccc(C(=O)Nc2cccc(-c3nc(N4CCOCC4)c4oc5ncccc5c4n3)c2)cn1,percent Bodipy-positive cells,[2],87.85 ± 0.2%
CCOC(=O)COc1ccc2c(=O)cc(-c3ccccc3)oc2c1,percent Bodipy-positive cells,[2],44.2 ± 9.8%
O=C(NCC1(c2nc(-c3ccccc3)cs2)CCOCC1)c1cccc(-c2noc(C(F)(F)F)n2)c1,percent Bodipy-positive cells,[1],35.9 ± 3.6%
same,percent Bodipy-positive cells,[2],28.1 ± 0.97%
CNCc1ccc(-c2cc(-c3nc(-c4ccc(S(=O)(=O)C(C)C)cc4)cnc3N)on2)cc1,percent Bodipy-positive cells,[1],97.24 ± 0.74%
CCCCCCCC/C=C\CCCCCCCC(=O)OC[C@H](CO)OC(C)=O [1-Oleoyl 2-acetyl-glycerol],percent Bodipy-positive cells,[3],9.93 ± 9.3%
CCCCCCCC/C=C\CCCCCCCC(=O)OC[C@H](CO)OC(C)=O [1-Oleoyl-2-acetyl-sn-glycerol],percent Bodipy-positive cells,[3],6.22 ± 0.22%
O=C(O)C(=O)O.[NH-][C@@H]1CCCC[C@H]1[NH-].[Pt+2] [Oxaliplatin],percent Bodipy-positive cells,[1],13.8 ± 7.2%
same,percent Bodipy-positive cells,library stock concentration: 5 mM,3.83 ± 0.12%
same,percent Bodipy-positive cells,[2],20.4% and 7.25%
CSc1cc2c(cc1C(F)(F)F)N(C(=O)Nc1cccnc1)CC2,percent Bodipy-positive cells,[2],14.7 ± 7.1%
Cc1cc2nc3c(=O)[nH]c(=O)nc-3n(C)c2cc1C=O,percent Bodipy-positive cells,[2],11.1 ± 0.97%
Cc1ccc(NC(=O)c2ccc(CN3CCN(C)CC3)cc2)cc1Nc1nccc(-c2cccnc2)n1,percent Bodipy-positive cells,[5],7.3 ± 0.71%
same,percent Bodipy-positive cells,[6],29.4 ± 4.4%
same,percent Bodipy-positive cells,[2],93.4 ± 3.9%
Cc1ccc(NC(=O)c2ccc(CN3CCN(C)CC3)cc2)cc1Nc1nccc(-c2cccnc2)n1 [Imatinib (STI571)] [listing 2 of 2 here],percent Bodipy-positive cells,[1],30 ± 12%
Cc1ccc(NC(=O)c2ccc(CN3CCN(C)CC3)cc2)cc1Nc1nccc(-c2cccnc2)n1 [Imatinib Mesylate (STI571)],percent Bodipy-positive cells,[1],40.3 ± 7.7%
Cc1ccc(NC(=O)c2ccc(CN3CCN(C)CC3)cc2)cc1Nc1nccc(-c2cccnc2)n1 [Imatinib],percent Bodipy-positive cells,[4],15.1 ± 13%
same,percent Bodipy-positive cells,[5],18.4 ± 4%
same,percent Bodipy-positive cells,[6],24.86 ± 0.2%
CC(C)C(=O)Oc1ccc(CO)cc1[C@H](CCN(C(C)C)C(C)C)c1ccccc1 [Fesoterodine Fumarate],percent Bodipy-positive cells,[1],31.6 ± 4.9%
Cc1nn(-c2ccccc2)c(C)c1C=NN1CCN(Cc2ccccc2)CC1,percent Bodipy-positive cells,[1],38.1 ± 3.4%
CCCCC/C=C\C/C=C\C/C=C\C=C\[C@@H](O)CCCC(=O)O,percent Bodipy-positive cells,library stock concentration: 100 uM,28.2 ± 28%
CCCCC[C@H](O)/C=C/[C@@H]1[C@H]2C/C(=C\CCCC(=O)O)C[C@H]2C[C@H]1O [5-cis Carbaprostacyclin],percent Bodipy-positive cells,[3],16.3 ± 4%
N=C(N)c1ccc(N2CCN(C3CCN(CC(=O)O)CC3)CC2)cc1,percent Bodipy-positive cells,[2],11.5 ± 5.8%
Fc1ccc(CN(C2=NCCN2)c2c(Cl)cccc2Cl)cc1 [IMID-4F hydrochloride],percent Bodipy-positive cells,[2],80.6 ± 4.3%
CCc1c2c(nc3ccc(O)cc13)-c1cc3c(c(=O)n1C2)COC(=O)[C@]3(O)CC,percent Bodipy-positive cells,[1],32.5 ± 2.6%
"COC(=O)CCC[C@H](O)[C@H](O)CO [5(S),6(R)-7-trihydroxymethyl Heptanoate]",percent Bodipy-positive cells,[3],10.7 ± 2.8%
CCCCCCCCCCCCCCP(=O)(O)O [Tetradecyl Phosphonate],percent Bodipy-positive cells,[3],8.36 ± 1.5%
CCOC(=O)O[C@]1(C(=O)OCCl)CC[C@H]2[C@@H]3CCC4=CC(=O)C=C[C@]4(C)[C@H]3[C@@H](O)C[C@@]21C,percent Bodipy-positive cells,[2],7.04 ± 4.2%
CCOC(=O)O[C@]1(C(=O)OCCl)CC[C@H]2[C@@H]3CCC4=CC(=O)C=C[C@]4(C)[C@H]3[C@@H](O)C[C@@]21C [Loteprednol etabonate],percent Bodipy-positive cells,[1],6.21 ± 0.15%
same,percent Bodipy-positive cells,[2],9.48 ± 4.8%
CC[C@H]1C(=O)OC[C@@H]1Cc1cncn1C [Isopilocarpine nitrate],percent Bodipy-positive cells,[2],23.2 ± 18%
